Binding data for two substances are collected here from PMC13336771.

By UniProt entry, the sequences of proteins in these tests, tags left out. Where a name states a change or a piece, a line headed by the entry shows the natural chain unless it says otherwise.
UniProt P08034: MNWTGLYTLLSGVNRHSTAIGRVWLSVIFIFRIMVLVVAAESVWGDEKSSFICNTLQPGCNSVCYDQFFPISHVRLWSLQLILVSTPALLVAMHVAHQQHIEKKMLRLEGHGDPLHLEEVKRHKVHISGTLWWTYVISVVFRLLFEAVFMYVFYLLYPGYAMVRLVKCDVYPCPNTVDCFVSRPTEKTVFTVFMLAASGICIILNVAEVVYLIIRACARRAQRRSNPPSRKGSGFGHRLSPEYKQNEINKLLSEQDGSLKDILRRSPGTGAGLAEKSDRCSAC

The experiment addresses Connexin32 wild type (Cx32^WT), tagged with Clover or mRuby2 (UniProt P08034). Put plainly: FRET or BRET; acceptor depletion FRET; Clover donor and mRuby2 acceptor fused to the connexins; Clover fluorescence imaged before and after bleaching of mRuby2; dependence of FRET efficiency on acceptor level and donor to acceptor ratio. On the technique in general: Bioluminescence resonance energy transfer reports proximity on the nanometre scale.

Results are given in words; binding and its absence hold for the method and conditions named. In cells and extracts the contact can be indirect. Some results given as binding are weak or reduced against the parent protein; the word gives no strength.

As to “Connexin32 wild type (Cx32^WT), tagged with Clover or mRuby2 (from UniProt P08034 1-283)”, the binding result is given as “binds”.
Take “Cx32^DN, dominant negative Connexin32 subunit (K124R, K104A), tagged with Clover or mRuby2 (from UniProt P08034 1-283)”: the binding result is “binds”.
